Results: PubChem BioAssay AID504467 (National Center for Advancing Translational Sciences (NCATS), 2011)
The campaign covered roughly 330,000 compounds. About 7,700 (2.3%) were called active. This list was built around the results that the source calls inconclusive (neither active nor inactive); the mix of calls is not that of the screen. The call rests on the fitted dose curve; in most records, active means well fitted inhibition curve with a large enough effect; inconclusive means small, poorly fitted or top-dose-only effect, or effect the other way; inactive means flat fitted curve, though single readings scatter. Potencies of inconclusive entries are doubtful fits and often do not repeat.
On the % scale 0 is the no-effect control and ±100 the full control effect; potency means the concentration at half of the fitted maximal effect.

Assay: qHTS screen for small molecules that inhibit ELG1-dependent DNA repair in human embryonic kidney (HEK293T) cells expressing luciferase-tagged ELG1; further: nearly all actives have a fitted effect of over 55% in size
Details: HEK293T ELG1-luciferase reporter, luminescence, 16 h, DNA damage induced by 5-fluorouridine; activity change, negative = inhibition: at 46.1 µM (top of the series)
Procedure, shortened: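 Quantitative HTS, concentration-response format. 2,000 cells/well co-treated with 5-fluorouridine and compound, 16 hr in 5% CO2 at 37 °C; ONE-Glo luminescence read after 30 min.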
In the case of `CCOc1ccccc1N(C)C(=O)c1sc2ncn(CC(=O)N3CCCCC3C)c(=O)c2c1C` (centres undefined), the Potency was inconclusive: 32.6 µM [inhibitor, single point]. In the case of `CCC(=O)NC(c1ccco1)c1cc(Cl)c2ccccc2c1O` (centres undefined), the Potency was inconclusive: 18.3 µM [activator, partial curve, poor fit]. For `CN1C(=O)/C(=C/c2cc(C(C)(C)C)c(O)c(C(C)(C)C)c2)NC1=S`, the “activity change, negative = inhibition” value was inactive: 0%. With `COCc1cc(C)nc(SCC(=O)Nc2ccc3c(c2)n(C)c(=O)n3C)c1C#N` the Potency was inconclusive: 13 µM [activator, partial curve, poor fit]. In the case of `CC(C)OC(=O)c1ccc(N2CCN(c3ccc(F)cc3)CC2)nc1`, the Potency was inconclusive: 8.2 µM [inhibitor, partial curve]. For `COc1ccc2oc(C(=O)OCC(=O)N(Cc3ccccc3)C(C)(C)C)c(C)c2c1`, the Potency was inconclusive: 18.3 µM [inhibitor, partial curve, poor fit]. In the case of `Cc1nn(CC(=O)NCC(C)c2ccccc2)c(=O)c2cccn12` (centres undefined), the “activity change, negative = inhibition” value was inactive: 16.8%. In the case of `CN(C(=O)Nc1ccc(C(C)(C)C)cc1)C1CCCCC1`, the Potency was inconclusive: 1.64 µM [activator, partial curve, poor fit]. With `CCn1c(SCC(=O)c2ccc(O)c(O)c2)nnc1-c1ccccc1` the Potency was inconclusive: 29.1 µM [activator, single point]. With `CCc1ccc(C(=O)COC(=O)c2nn(C)c(=O)c3ccccc23)cc1` the “activity change, negative = inhibition” value was inactive: 3.07%. For `Cc1cc(Nc2nc3ccccc3[nH]c2=O)n(-c2ccccc2)n1`, the Potency was inconclusive: 29.1 µM [activator, partial curve, poor fit]. In the case of `CCc1c(C)nc2ncnn2c1N1CCCC(C(=O)NCCc2ccc(OC)cc2)C1` (centres undefined), the Potency was inconclusive: 0.92 µM [inhibitor, single point]. In the case of `C/C(=N/NC(=O)c1ccco1)c1ccc(NC(=O)c2ccc(F)cc2)cc1`, the Potency was inconclusive: 20.6 µM [activator, partial curve]. For `COc1ccc(C(=O)Nc2ccc(C(=O)Nc3nccs3)cc2)cc1[N+](=O)[O-]`, the “activity change, negative = inhibition” value was inactive: 12.9%. For `O=C(Nc1ccn(Cc2c(F)c(F)cc(F)c2F)n1)c1ccc(COc2ccc(Cl)cc2Cl)o1`, the Potency was inconclusive: 29.1 µM [inhibitor, single point]. With `COC(=O)c1[nH]nc2c1C(=O)N(C1CCCCC1)C2=O` the Potency was inconclusive: 1.3 µM [inhibitor, single point]. For `O=c1[nH]c(SCCOc2ccccc2F)nc2ccccc12`, the Potency was inconclusive: 16.4 µM [activator, partial curve]. For `Cc1ccccc1-c1cc2c(nn1)-c1ccccc1C2=O`, the Potency was inconclusive: 7.31 µM [activator, partial curve]. In the case of `O=C(Cn1cc([N+](=O)[O-])ccc1=O)NC1CCCCC1`, the “activity change, negative = inhibition” value was inactive: 21.4%. For `O=C(NC(=S)Nc1ccccn1)c1ccco1`, the Potency was inconclusive: 16.4 µM [activator, partial curve]. For `O=C(O)CCCC(=O)Nc1ccc(OCc2nc3ccccc3s2)cc1`, the Potency was inconclusive: 29.1 µM [activator, single point]. For `CC(=O)Nc1ccc(/C=N/N2CCCCC2)cc1`, the Potency was inconclusive: 20.6 µM [activator, partial curve]. With `CN(c1ccc(C(=O)N2CCN(c3ccc(F)cc3)CC2)cc1)S(C)(=O)=O` the “activity change, negative = inhibition” value was inactive: -3.14%. For `CC(C)CCNC(=O)c1ccccc1SCC(=O)NC1CCCCCCC1`, the Potency was inconclusive: 22.4 µM [inhibitor, single point]. With `CN(CC(=O)Nc1ccc(F)cc1)C(=O)COC(=O)CCN1C(=O)C2CC=CCC2C1=O` (centres undefined) the “activity change, negative = inhibition” value was inactive: 10.2%. For `CCCCN(CCCC)C(=O)/C=C/c1cccc([N+](=O)[O-])c1`, the “activity change, negative = inhibition” value was inactive: -24.1%. In the case of `CN(Cc1nc2ccccc2c(=O)[nH]1)C(=O)c1ccccc1OCc1ccc(Cl)cc1`, the Potency was inconclusive: 20.6 µM [inhibitor, single point]. In the case of `Cc1ccccc1OCCOC(=O)c1ccc(S(=O)(=O)N2CCCC2)cc1`, the “activity change, negative = inhibition” value was inactive: -2.18%. For `Cc1cc2oc(=O)cc(CN3CCC(C)CC3)c2cc1Cl`, the Potency was inconclusive: 18.4 µM [activator, single point]. In the case of `Cc1cccc(NC(=O)C(C)C(=O)c2ccccc2)c1` (centres undefined), the “activity change, negative = inhibition” value was inactive: 0.512%. For `COc1cc(OC)cc(-c2c(-c3cccs3)c3cc(-c4ccc(OC)cc4F)ccc3n2C)c1`, the “activity change, negative = inhibition” value was inactive: 2.8%. In the case of `Nc1nnc(SCCCC(=O)c2ccc(Br)cc2)s1`, the Potency was inconclusive: 7.31 µM [activator, partial curve, poor fit]. In the case of `COc1ccc2c(c1)[C@H]1[C@H](CO2)[C@H](c2ccccc2)[C@]2(C)C(=O)N[C@@H](C)C(=O)N12`, the “activity change, negative = inhibition” value was inactive: 13.6%. In the case of `O=C(CSc1nnc(-c2ccccn2)n1Cc1ccccc1)NC1CCCC1`, the Potency was inconclusive: 23.1 µM [inhibitor, partial curve, poor fit]. In the case of `O=C(NC1CCN(Cc2ccccc2)CC1)c1c(F)cccc1F`, the “activity change, negative = inhibition” value was inactive: 18.7%. With `CC1=C([N+](=O)[O-])C(c2ccccc2C(F)(F)F)NC(=O)N1C` (centres undefined) the “activity change, negative = inhibition” value was inactive: 5.81%. In the case of `O=C(c1cnn2ccccc12)N1CCN(C2CCCCC2)CC1`, the Potency was inconclusive: 20.6 µM [activator, partial curve, poor fit]. With `COC(=O)c1ccc(-c2ccc(F)cc2)nc1C` the Potency was inconclusive: 7.31 µM [activator, partial curve]. In the case of `CCCCn1nc(C(=O)Nc2cc(C(F)(F)F)ccc2N2CCOCC2)ccc1=O`, the Potency was inconclusive: 35.5 µM [inhibitor, single point]. In the case of `CCN1CCc2c(sc(NC(=O)c3ccc(S(=O)(=O)N(C)c4ccccc4)cc3)c2C(=O)NC)C1`, the Potency was inconclusive: 23.1 µM [inhibitor, single point]. With `CCOc1ccccc1N/C(=C(/C(Cl)=C(Cl)Cl)[N+](=O)[O-])n1cncn1` the “activity change, negative = inhibition” value was inactive: 3.67%. With `COc1ccc(CC(=O)N/N=C/c2cccn2-c2ccc([N+](=O)[O-])cc2)cc1OC` the Potency was inconclusive: 16.4 µM [inhibitor, partial curve]. In the case of `CC(C)(C)n1ncc2c(=O)n(CC(=O)c3ccccc3)cnc21`, the Potency was inconclusive: 5.17 µM [activator, partial curve]. In the case of `CN(CC(=O)Nc1cccc([N+](=O)[O-])c1)S(=O)(=O)c1ccccc1`, the “activity change, negative = inhibition” value was inactive: 0.0952%.
